The other results are listed elsewhere or left out. These are further read-outs of the screen, such as a control signal, another cell line or another target. No call is given for them. Most of these compounds were active or inconclusive in the main read-out, so they are no random draw. Words in brackets tell the shape of the fitted curve; partial curves, single points and poor fits give uncertain potencies.
Assay: qHTS Assay to Find Inhibitors of Chronic Active B-Cell Receptor Signaling
Details: ABC-DLBCL IkBa-CBG/CBR reporter, luminescence ratio (green luciferase fused to IkBa over red control in TMD8 lymphoma cells), 4 h
Description: NIH Molecular Libraries Probe Production Network [MLPCN] NIH Chemical Genomics Center [NCGC] MLPCN Grant: 1 R03 DA031086-01A1 PI Name: Dr. R. Eric Davis NCGC Assay Overview: Diffuse large B-cell lymphoma (DLBCL) is the most common category of non-Hodgkin lymphoma, with ~20,000 new cases per year in the United States. DLBCL should be regarded as a collection of different neoplasms. Microarray gene expression analysis has defined two principal types of DLBCL, named for their similarity to normal B cell stages or activation states: a germinal center B-cell (GCB) type, and an activated B-cell (ABC) type. In ABC-DLBCL, a constitutive high-level activity of the NF-kappaB family of transcription factors has been observed (1) and NF-kappaB target genes are more highly expressed in ABC primary tumors than in GCB tumors. Functional studies have shown a constitutive high-level activity of the IkappaB (inhibitor of kappa-B) kinase (IKK) complex. […] Further analysis of DLBCL primary tumors for NF-kappaB target gene expression imply that although CARD11 is required for constitutive IKK activity in all ABC-DLBCL lines, mutations in CARD11 may be the root cause of IKK activation only in lines or tumors with such mutations. In other words, CARD11 mutations may explain NF-kappaB activation in only 10% of ABC-DLBCL cases. […] This process has been termed 'chronic active BCR signaling' (CABS). The goal of this screen is to find small-molecule inhibitors of the CABS pathway found in ABC-DLBCL lines using a cell-based assay that measures IkappaBalpa stability, which has already been extensively validated in the OCI-Ly3 line (PubChem AID:445; REF: 4). […] The assay uses green (CBG68) and red (CBR) emitting beetle luciferases [Chroma-GloTM developed by Promega Corp.] where the green luciferase is fused to IkappaBalpha and the red luciferase is present in its native state. Both luciferase genes are stably present in the TMD8 human ABC DLBCL cell line, but their expression is under the control of tetracycline-inducible promoters. Following the addition of doxycycline to induce expression of the luciferases, the green luminescence in control cultures rises only slowly because the CBG fusion partner IkappaBalpha is targeted by IKK activity for rapid degradation. In contrast, green luminescence rises rapidly in the presence of proteasome inhibitors or IKK inhibitors. The rise in red luminescence of CBR is not affected by proteasome or IKK inhibitors, and serves as normalization for cell number and nonspecific effects. Compounds were screened as a concentration-titration series that ranged from 46 uM to 3 nM.
NCGC Assay Protocol Summary: Cells were seeded in 1536-well plates at 5000 cells/4uL in IMDM medium containing 0.5% FBS, w/o phenol red, 1% penicillin/streptomycin. Then, 23 nL of compounds or DMSO were delivered to each well using a pin tool. One uL 20ng/ml doxycycline was then dispensed into white solid 1536-well plates and the plates were incubated at 37C/5% C02 in a cell incubator for 4 hrs. Then 4 uL luminescent substrate mix (in-house prepared: 150 mM Tris-Cl, pH 7.6, 3 mM MgCl2, 1% Triton X-100, 5 mM DTT, 0.2 mM CoA, 0.15 mM ATP, 5 mM D-luciferin, final concentrations) was added to each well. The plate was incubated at r.t. for 10-15 min. The plates were measured on a ViewLux plate reader for green luminescence (540/20 nm filter) and red luminescence (618/8 nm filter). The green and red luminescent signals were corrected for red and green luminescence filter overlap using previously determined filter calibration constants (determined using the procedure outlined in the Promega Technical Manual; REF 4). The %Activity was determined from the ratio of corrected green/red luminescent values. MG132 were used as control. […] Red luminescent %Activity was normalized to the difference between red luminesence in basal cells (0%Activity) and zero luminescence (-100% Activity). […]

[1] = measured here: CBR red luminescence, cell number
[2] = measured here: IkBa-CBG green luminescence

SMILES	AC50 [1]	AC50 [2]
CC(=O)N1CCN(CC(=O)Nc2ccc(C)c(F)c2)CC1	7.94 µM [falling, single point]	
CC1=[N+](CC(=O)c2ccccc2)CCn2cccc21	3.55 µM [rising, partial curve, poor fit]	
Cc1ccc(S(=O)(=O)N2CCCCC2)cc1C(=O)OC(C)C(=O)NC1CCCCC1C (stereo unspecified)	2.91 µM [falling, partial curve, poor fit]	
COc1c(Cl)cc(Cl)cc1C(=O)Nc1ccc(C(=O)O)cc1	7.31 µM [falling, partial curve]	
Clc1ccc(-c2nc(Cc3ccccc3Cl)no2)cc1	14.1 µM [rising, partial curve, poor fit]	
O=C(NN1CCCCC1)c1cccc(COc2ccc(Cl)cc2)c1	13 µM [falling, partial curve, poor fit]	
COc1ccccc1NC(=S)NC(=O)/C=C/c1cccs1	3.98 µM [falling, partial curve, poor fit]	
O=C(Nc1ccc(-c2csnn2)cc1)C1CC1	0.708 µM [rising, full curve, poor fit]	
CCc1cccc(C)c1NC(=O)c1cc(S(=O)(=O)N(Cc2ccc(C(=O)OC)cc2)Cc2ccc(OC)c(OC)c2)ccc1F	0.631 µM [rising, full curve, poor fit]	
O=C(NC1=NCCS1)c1ccc(C(F)(F)F)cc1	2.51 µM [rising, full curve]	
Cc1ccc(NC(=S)N(CCN(C)C)C(C)c2cccnc2)c(C)c1 (stereo unspecified)	0.0891 µM [falling, full curve, poor fit]	
COc1cccc(OCc2cc(C(=O)NCc3cnc4ccccn34)no2)c1	0.447 µM [falling, full curve, poor fit]	
Cc1ccccc1-c1noc(CCC(=O)NCCc2ccccc2)n1	5.62 µM [falling, single point]	
Cc1nc(N)sc1-c1csc(Nc2cccc(O)c2)n1	11.2 µM [falling, partial curve]	
C/C(=N\Nc1ccc([N+](=O)[O-])cc1)c1ccc(-n2nncc2C(C)(C)C)cc1	5.8 µM [falling, partial curve, poor fit]	
Cc1ccc([C@@H]2CC=C(C(=O)O)[C@H](c3ccccc3)N2S(=O)(=O)c2ccccc2C)cc1	0.291 µM [rising, full curve, poor fit]	
O=C(Nc1ccc2c(c1)OCCO2)N1CCOCC1	0.562 µM [falling, full curve, poor fit]	
O=C(O)c1ccc(CSc2nc3ccc(NC(=O)c4ccccc4C(=O)O)cc3s2)cc1	31.6 µM [falling, single point]	
CC(=O)c1cccc(NC(=O)C(C)OC(=O)CNC(=O)c2ccc(C)s2)c1 (stereo unspecified)	35.5 µM [rising, single point]	
C=CC[C@@H](CC(=O)N(CCO)Cc1ccccc1)C(=O)N[C@@H](COC(=O)[C@@H](CC=C)CC(=O)OC(C)(C)C)Cc1c[nH]c2ccccc12	18.4 µM [falling, partial curve]	29.1 µM [rising, partial curve, poor fit]
O=c1c(/C=C(\O)c2ccc(F)cc2)nc2ccccc2n1-c1ccccc1	0.326 µM [falling, full curve]	

Structural class: the entries above with two or more sulfur atoms.
SMILES	AC50 [1]	AC50 [2]
COc1ccccc1NC(=S)NC(=O)/C=C/c1cccs1	3.98 µM [falling, partial curve, poor fit]	
Cc1nc(N)sc1-c1csc(Nc2cccc(O)c2)n1	11.2 µM [falling, partial curve]	
O=C(O)c1ccc(CSc2nc3ccc(NC(=O)c4ccccc4C(=O)O)cc3s2)cc1	31.6 µM [falling, single point]	

Random excerpt: 2 records from the list
SMILES	AC50 [1]	AC50 [2]
O=C(NC1=NCCS1)c1ccc(C(F)(F)F)cc1	2.51 µM [rising, full curve]	
O=C(Nc1ccc2c(c1)OCCO2)N1CCOCC1	0.562 µM [falling, full curve, poor fit]	

Further records.

SMILES	AC50 [1]	AC50 [2]
CCn1c(=O)c2c3c(sc2n2cnnc12)CCC3	20.6 µM [falling, single point]	
CC(=O)C(N=Nc1ccccc1)(Sc1nnc(-c2ccccc2)n1-c1ccccc1)C(C)=O	7.94 µM [falling, partial curve]	
COc1ccc(Cc2nnc(Cl)c3ccccc23)cc1OC	17.8 µM [rising, partial curve]	17.8 µM [falling, partial curve, poor fit]
N=c1n(CCO)c2ccccc2n1Cc1ccc(Cl)cc1	22.4 µM [falling, single point]	
Cc1ccc(NC(=O)CSc2nc(=O)n(Cc3cccnc3)c3c2CCC3)cc1F	11.2 µM [falling, single point]	
COc1ccc(OCC(=O)Nc2ccc3nc(C)sc3c2)cc1	1.78 µM [rising, partial curve, poor fit]	
COc1ccc(C2Oc3ccccc3C3=C2C(c2cccs2)n2ncnc2N3)cc1 (stereo unspecified)	7.31 µM [falling, partial curve, poor fit]	11.6 µM [rising, partial curve, poor fit]
c1ccc2c(c1)oc1c(Nc3ccc(CN4CCOCC4)cc3)ncnc12	22.4 µM [falling, partial curve, poor fit]	
Cc1ccc2nc(N(CCCN(C)C)C(=O)c3ccc(S(=O)(=O)N4CCCCCC4)cc3)sc2c1	0.112 µM [rising, full curve, poor fit]	
COc1ccc(CNC(=O)CN2C(=O)C3CCCN3c3ncc(Cl)cc32)cc1 (stereo unspecified)	0.291 µM [falling, full curve, poor fit]	
O=S(=O)([N-]c1nc2ccccc2nc1-[n+]1ccc(Cc2ccccc2)cc1)c1ccc(Br)s1	35.5 µM [falling, single point]	
Cc1ccc(CN(c2ccc(C(=O)N3CCCC3)cc2)S(C)(=O)=O)cc1	7.08 µM [rising, partial curve, poor fit]	
CC1(C2(O)CC(c3ccccc3)ON2)CCCCC1 (stereo unspecified)	16.4 µM [rising, partial curve]	
COC(=O)C(C)C1Sc2ccccc2NC1=O (stereo unspecified)	29.1 µM [rising, single point]	
CCOc1ccc(OCc2ccc(C(=O)NN=Cc3ccc[nH]3)cc2)cc1	8.2 µM [falling, single point]	
Cc1nc2sc(C(c3cccc(F)c3)N3CCCCC3)c(O)n2n1 (stereo unspecified)	0.411 µM [rising, full curve, poor fit]	
Cc1ccc(C)c(NC(=S)N2CCN(S(C)(=O)=O)CC2)c1	3.16 µM [falling, partial curve, poor fit]	
NC(=O)c1ccccc1N/C=C/C(=O)c1ccc(Cl)cc1	2.31 µM [falling, full curve]	
COc1ccc(C)cc1NC(=O)C(Sc1nnc(-c2ccncc2)n1-c1ccc(Cl)cc1)c1ccccc1 (stereo unspecified)	29.1 µM [falling, single point]	
Cc1ccc(C(=O)NC(=S)N2CCCCCC2)cc1	0.82 µM [rising, full curve, poor fit]	
CC(=O)c1ccc(N2CCN(C(=O)c3cc4c(-c5ccccc5F)nn(C)c4s3)CC2)cc1	16.4 µM [falling, single point]	18.4 µM [rising, partial curve, poor fit]

SMILES	AC50 [1]	AC50 [2]
CC1(C)CC(=O)C(C=NCCc2ccccn2)=C(O)C1	3.66 µM [rising, partial curve, poor fit]	
O=C(N/N=C/c1cccnc1)c1ccccc1OCc1cccc(Br)c1	1.78 µM [falling, full curve]	
c1ccc2c(c1)COC(CNC1CCCCC1)OC2	17.8 µM [rising, partial curve, poor fit]	
CSc1ccc(OC2CCCCC2NS(=O)(=O)c2ccc(Cl)cc2)cc1 (stereo unspecified)	3.66 µM [rising, single point]	
O=C(CSc1cn(Cc2ccccc2)c2ccccc12)Nc1nccs1	3.66 µM [falling, partial curve, poor fit]	
CCNC(=O)Nn1c(C)nnc1C	23.1 µM [rising, single point]	
COc1ccc(-c2nn3c(C4CCCCC4)nnc3s2)cc1OC		6.31 µM [falling, partial curve, poor fit]
c1ccc(-c2ncc(CN3CCN(c4ccccn4)CC3)[nH]2)cc1	0.501 µM [rising, full curve, poor fit]	
COc1ccc(CCNC(=O)CS(=O)(=O)c2cn(CC(=O)N(C(C)C)C(C)C)c3ccccc23)cc1OC	3.98 µM [rising, partial curve, poor fit]	
CC(=O)Nc1ccc(NC(=O)COc2c(C)cc(Br)cc2C)cc1	8.91 µM [falling, partial curve, poor fit]	
Cc1nc2ccccc2cc1OCc1ccc(Cl)cc1	0.146 µM [rising, full curve, poor fit]	
CCCc1cc(C(=O)Nc2ccc(F)cc2F)no1	2.91 µM [falling, partial curve, poor fit]	
CC(=O)Nc1cccc(NC(=O)c2ccccc2OCc2ccccc2)c1	8.91 µM [falling, partial curve]	
COC(=O)/C=C1/S/C(=N/NC(=O)c2ccccc2OC)NC1=O	10 µM [falling, partial curve]	
COc1cc2c(cc1NC(=S)NC(=O)/C=C/c1ccco1)oc1ccccc12	10.3 µM [falling, partial curve, poor fit]	
CC(=O)Oc1ccc(N2C(=O)C3C4C=CC(O4)C3C2=O)cc1 (stereo unspecified)	35.5 µM [falling, single point]	
COCCNC(=O)c1csc(Nc2cccc3ccccc23)n1	12.6 µM [falling, partial curve, poor fit]	
Clc1ccccc1C1=Nn2c(nnc2-c2ccncc2)SC1	12.6 µM [falling, single point]	
COCC1CCN(C(=O)c2cc(COc3ccc(C)c(C)c3)on2)C1 (stereo unspecified)	12.6 µM [falling, partial curve, poor fit]	
COC(=O)c1c(NC(=O)COC(=O)[C@@H](NS(=O)(=O)c2cccc(Cl)c2)C(C)C)sc2c1CCC2	8.2 µM [falling, partial curve]	

Source: PubChem BioAssay AID493014 (National Center for Advancing Translational Sciences (NCATS), 2011)
